Where two headings read alike, the source gives them in different places. These are yes or no findings as the source states them, for the method shown. Some binding calls cover weakened binding; strength is not graded here.

By UniProt entry, the sequences of proteins in these tests, tags left out.
UniProt P93835: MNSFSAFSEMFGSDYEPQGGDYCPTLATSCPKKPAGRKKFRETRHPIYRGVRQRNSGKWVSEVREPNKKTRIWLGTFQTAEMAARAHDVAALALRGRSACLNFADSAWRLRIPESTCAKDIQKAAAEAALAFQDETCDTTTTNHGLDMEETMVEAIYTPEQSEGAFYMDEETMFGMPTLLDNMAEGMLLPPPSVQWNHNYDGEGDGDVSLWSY
UniProt Q9SYS6: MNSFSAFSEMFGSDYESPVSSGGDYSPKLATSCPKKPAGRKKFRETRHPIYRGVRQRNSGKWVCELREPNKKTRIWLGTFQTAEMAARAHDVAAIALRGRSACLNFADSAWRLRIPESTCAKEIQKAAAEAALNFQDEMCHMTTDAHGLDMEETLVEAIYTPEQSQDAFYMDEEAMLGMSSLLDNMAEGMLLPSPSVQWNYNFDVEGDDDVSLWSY

Assay [1] deals with T1, AtPUB19 (Arabidopsis thaliana) (UniProt O80742).
T1 sequence: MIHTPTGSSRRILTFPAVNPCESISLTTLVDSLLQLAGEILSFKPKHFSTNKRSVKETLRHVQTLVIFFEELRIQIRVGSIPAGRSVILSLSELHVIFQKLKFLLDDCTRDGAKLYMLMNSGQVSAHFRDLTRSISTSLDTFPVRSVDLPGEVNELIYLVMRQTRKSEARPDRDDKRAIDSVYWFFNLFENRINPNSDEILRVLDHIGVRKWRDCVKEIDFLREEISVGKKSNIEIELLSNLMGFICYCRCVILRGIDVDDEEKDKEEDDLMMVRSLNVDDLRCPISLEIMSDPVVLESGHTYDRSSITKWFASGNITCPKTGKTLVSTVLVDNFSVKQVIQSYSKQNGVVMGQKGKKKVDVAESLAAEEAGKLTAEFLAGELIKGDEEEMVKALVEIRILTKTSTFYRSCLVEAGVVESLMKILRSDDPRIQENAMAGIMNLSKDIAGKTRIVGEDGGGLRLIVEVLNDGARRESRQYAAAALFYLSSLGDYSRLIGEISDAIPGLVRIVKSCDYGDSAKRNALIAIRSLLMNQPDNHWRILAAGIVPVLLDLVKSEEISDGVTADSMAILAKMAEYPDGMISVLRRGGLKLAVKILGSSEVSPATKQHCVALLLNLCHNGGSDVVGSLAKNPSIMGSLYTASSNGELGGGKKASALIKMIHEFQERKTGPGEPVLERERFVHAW
Kind of assay: two-hybrid; AtPUB19 against AtICE1, AtICE2, AtCBF1 and AtCBF2 (Supplemental Fig. S6); the method is not named in the sentences, which stand among the Y2H results; vectors not told.

The target of assay [2] is T1, AtPUB19 (Arabidopsis thaliana). The description is as above. This is another data set of the same source.

As to AtCBF1 (from UniProt P93835 1-213), the binding entry in assay [1] is “binds”.
With AtCBF2 (from UniProt Q9SYS6 1-216), the binding entry in assay [1] was “binds”.

B1: AtICE1 (protein, UniProt Q9LSE2 1-494)
chain: MGLDGNNGGGVWLNGGGGEREENEEGSWGRNQEDGSSQFKPMLEGDWFSSNQPHPQDLQMLQNQPDFRYFGGFPFNPNDNLLLQHSIDSSSSCSPSQAFSLDPSQQNQFLSTNNNKGCLLNVPSSANPFDNAFEFGSESGFLNQIHAPISMGFGSLTQLGNRDLSSVPDFLSARSLLAPESNNNNTMLCGGFTAPLELEGFGSPANGGFVGNRAKVLKPLEVLASSGAQPTLFQKRAAMRQSSGSKMGNSESSGMRRFSDDGDMDETGIEVSGLNYESDEINESGKAAESVQIGGGGKGKKKGMPAKNLMAERRRRKKLNDRLYMLRSVVPKISKMDRASILGDAIDYLKELLQRINDLHNELESTPPGSLPPTSSSFHPLTPTPQTLSCRVKEELCPSSLPSPKGQQARVEVRLREGRAVNIHMFCGRRPGLLLATMKALDNLGLDVQQAVISCFNGFALDVFRAEQCQEGQEILPDQIKAVLFDTAGYAGMI
As for B1, the binding entry in assay [2] is given as “binds”.

The values above are taken from PMC11822393.
